PubChem BioAssay AID1508588 | Peter MacCallum Cancer Centre | 2020
Shown is one part, drawn at random, of about 18,000 reagents tested. 790 of all reagents (4.4%) count as active. 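Calls rest on a combination of fold-change classes in drug and vehicle arms, not all shown here.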

Test: 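Knock-downs boosting vemurafenib effects on melanoma cell growth or lactate release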 (primary screen)
System: human WM266.4 melanoma cells (BRAF V600 mutant)
Knock-down reagent: siRNA pool against human genes, 40 nM
Duration: 96 h from transfection to read-out
Conditions: vemurafenib 300 nM (about IC25), added 48 h after transfection, for 48 h; comparison arm got DMSO vehicle only
Measured: 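Ratios to non-targeting siRNA for cell gain, counted as DAPI nuclei after minus before drug and averaged over two replicates, and for absorbance-read medium lactate per cell; both binned into fold-change classes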
Direction: cell gain with vemurafenib: higher = more cell gain than with non-targeting siRNA; lactate per cell with vemurafenib: higher = more lactate made per cell
Call rule: 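a knock-down counts as enhancing when its fold-change classes with vehicle and with vemurafenib, taken together, show a stronger drug effect on cell gain or lactate per cell; exact class pairs not stated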
Meaning of the calls: active = enhances vemurafenib effect; inactive = no enhancement seen

Knock-down of ARL16 resulted in: cell gain with vemurafenib 0.85; lactate per cell with vemurafenib 0.68; active.
Depletion of CAMKV resulted in: cell gain with vemurafenib 0.45; lactate per cell with vemurafenib 0.66; inactive.
For PRICKLE4 the deposit lists cell gain with vemurafenib 1.12; lactate per cell with vemurafenib 0.68; inactive.
Knock-down of OSCP1 came out at: cell gain with vemurafenib 0.59; lactate per cell with vemurafenib 0.97; inactive.
Against OR12D3, the entry reads cell gain with vemurafenib 0.9; lactate per cell with vemurafenib 0.33; inactive.
After knock-down of ADIPOR2, the screen gave cell gain with vemurafenib 0.56; lactate per cell with vemurafenib 1.31; inactive.
Depletion of HAVCR1 resulted in: cell gain with vemurafenib 0.67; lactate per cell with vemurafenib 1; inactive.
For MGAT4C the deposit lists cell gain with vemurafenib 1.16; lactate per cell with vemurafenib 0.91; inactive.
For LBH, the entry reads cell gain with vemurafenib 0.09; lactate per cell with vemurafenib 1.5; inactive.
Depletion of TMSB4X gave: cell gain with vemurafenib 1.06; lactate per cell with vemurafenib 1.01; inactive.
Depletion of ENTPD8 came out at: cell gain with vemurafenib 0.83; lactate per cell with vemurafenib 0.88; inactive.
Depletion of LAMA2 resulted in: cell gain with vemurafenib 0.44; lactate per cell with vemurafenib 0.68; inactive.
Knock-down of ZNF138 came out at: cell gain with vemurafenib 0.61; lactate per cell with vemurafenib 0.6; inactive.
For B3GNT4 the deposit lists cell gain with vemurafenib 0.65; lactate per cell with vemurafenib 1.09; inactive.
After knock-down of UBR5, the screen gave cell gain with vemurafenib 0.28; lactate per cell with vemurafenib 0.39; inactive.
After knock-down of MAP1LC3C, the screen gave cell gain with vemurafenib 0.74; lactate per cell with vemurafenib 0.52; inactive.
Against SPAG16, the values are cell gain with vemurafenib 1.25; lactate per cell with vemurafenib 0.69; inactive.
Knock-down of SIRPD came out at: cell gain with vemurafenib 0.73; lactate per cell with vemurafenib 0.99; inactive.
With knock-down of GRAMD1A the results were cell gain with vemurafenib 0.65; lactate per cell with vemurafenib 1.36; inactive.
After knock-down of SEC16A the results were cell gain with vemurafenib 0.55; lactate per cell with vemurafenib 1.74; inactive.
After knock-down of CMTR1, the screen gave cell gain with vemurafenib 0.59; lactate per cell with vemurafenib 0.39; inactive.
Against NUDT3, the entry reads cell gain with vemurafenib 0.43; lactate per cell with vemurafenib 0.77; inactive.
Knock-down of AP4M1 resulted in: cell gain with vemurafenib 0.82; lactate per cell with vemurafenib 0.36; inactive.
With knock-down of MYLK, the screen gave cell gain with vemurafenib 0.66; lactate per cell with vemurafenib 1.08; inactive.
Depletion of DDTL came out at: cell gain with vemurafenib 0.82; lactate per cell with vemurafenib 0.98; inactive.
For NOLC1, the entry reads cell gain with vemurafenib 0.01; lactate per cell with vemurafenib 2.14; inactive.
Against FAM50B the deposit lists cell gain with vemurafenib 0.53; lactate per cell with vemurafenib 0.88; inactive.
Against HAPLN2 the deposit lists cell gain with vemurafenib 1.28; lactate per cell with vemurafenib 0.34; inactive.
CADM1 gave cell gain with vemurafenib 0.15; lactate per cell with vemurafenib 0.9; inactive.
For ZNRF3 the deposit lists cell gain with vemurafenib 0.95; lactate per cell with vemurafenib 0.82; inactive.
After knock-down of ZNF93, the screen gave cell gain with vemurafenib 0.44; lactate per cell with vemurafenib 0.7; inactive.
Silencing of SRA1 gave: cell gain with vemurafenib 0.42; lactate per cell with vemurafenib 1.19; inactive.
Silencing of NCOA1 came out at: cell gain with vemurafenib 0.68; lactate per cell with vemurafenib 1.04; inactive.
ETNK2 showed cell gain with vemurafenib -0.13; lactate per cell with vemurafenib -0.37; active.
With knock-down of NR1H3, the screen gave cell gain with vemurafenib 0.31; lactate per cell with vemurafenib 0.94; inactive.
After knock-down of ARHGAP21 the results were cell gain with vemurafenib 0.45; lactate per cell with vemurafenib 1.75; inactive.
With knock-down of IFNA14, the screen gave cell gain with vemurafenib 0.63; lactate per cell with vemurafenib 0.25; inactive.
For GLUL, the entry reads cell gain with vemurafenib 0.82; lactate per cell with vemurafenib 0.94; inactive.
Against SLC9B2, the values are cell gain with vemurafenib 0.45; lactate per cell with vemurafenib 1.98; inactive.
Knock-down of FRS2 gave: cell gain with vemurafenib 0.74; lactate per cell with vemurafenib 0.66; inactive.
Against UQCR10, the values are cell gain with vemurafenib 0.57; lactate per cell with vemurafenib 2.45; inactive.
For NGDN the deposit lists cell gain with vemurafenib 0.66; lactate per cell with vemurafenib 0.82; inactive.
After knock-down of CABP5, the screen gave cell gain with vemurafenib 0.44; lactate per cell with vemurafenib 0.4; inactive.
After knock-down of CORO6 the results were cell gain with vemurafenib 0.82; lactate per cell with vemurafenib 1.21; inactive.
POMC showed cell gain with vemurafenib 1.03; lactate per cell with vemurafenib 0.9; inactive.
With knock-down of MESD, the screen gave cell gain with vemurafenib 1.03; lactate per cell with vemurafenib 0.7; inactive.
Against ARL8B, the entry reads cell gain with vemurafenib 0.54; lactate per cell with vemurafenib 1.29; inactive.
Silencing of TSLIG1 resulted in: cell gain with vemurafenib 0.99; lactate per cell with vemurafenib 0.8; inactive.
For AEBP1 the deposit lists cell gain with vemurafenib 0.82; lactate per cell with vemurafenib 1; inactive.
Silencing of SCARF2 gave: cell gain with vemurafenib 0.46; lactate per cell with vemurafenib 0.83; inactive.
For TRAF4 the deposit lists cell gain with vemurafenib 1.02; lactate per cell with vemurafenib 0.59; inactive.
Knock-down of COG5 came out at: cell gain with vemurafenib 0.93; lactate per cell with vemurafenib 0.78; inactive.

Records listed so far called active, once more:
ARL16 — cell gain with vemurafenib: 0.85; lactate per cell with vemurafenib: 0.68; Call: active
ETNK2 — cell gain with vemurafenib: -0.13; lactate per cell with vemurafenib: -0.37; Call: active
